No constants are given. Whether binding was seen depends on the method and setting. Binding seen in cells or lysates may run through a third protein. Some binding calls cover weakened binding; strength is not graded here. Tags and fused reporters may be left off the sequences shown.
T1: FLD tagged at the carboxyl terminus with FLAG-TAP epitopes (FLD-FLAG-TAP) (Arabidopsis thaliana) (UniProt Q9CAE3)
T1 sequence: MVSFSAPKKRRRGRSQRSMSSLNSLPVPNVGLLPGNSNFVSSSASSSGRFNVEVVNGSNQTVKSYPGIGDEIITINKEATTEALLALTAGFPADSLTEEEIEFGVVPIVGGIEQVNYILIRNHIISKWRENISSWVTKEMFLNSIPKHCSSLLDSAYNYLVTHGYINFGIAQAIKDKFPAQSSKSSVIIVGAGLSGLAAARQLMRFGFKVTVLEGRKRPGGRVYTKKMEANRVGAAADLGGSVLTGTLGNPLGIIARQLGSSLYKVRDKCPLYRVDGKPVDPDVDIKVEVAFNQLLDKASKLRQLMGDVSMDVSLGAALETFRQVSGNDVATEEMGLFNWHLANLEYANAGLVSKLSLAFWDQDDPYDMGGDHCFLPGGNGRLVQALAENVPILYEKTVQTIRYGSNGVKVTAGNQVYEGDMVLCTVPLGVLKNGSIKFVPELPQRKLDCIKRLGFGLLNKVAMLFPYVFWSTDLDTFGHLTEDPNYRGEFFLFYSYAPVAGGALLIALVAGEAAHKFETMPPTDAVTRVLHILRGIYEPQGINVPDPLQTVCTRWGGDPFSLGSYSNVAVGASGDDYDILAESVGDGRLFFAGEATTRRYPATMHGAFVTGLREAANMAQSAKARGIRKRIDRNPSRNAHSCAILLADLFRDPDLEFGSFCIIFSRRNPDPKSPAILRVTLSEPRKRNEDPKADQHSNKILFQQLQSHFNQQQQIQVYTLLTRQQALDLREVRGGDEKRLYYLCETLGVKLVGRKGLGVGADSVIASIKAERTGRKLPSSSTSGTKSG

T2: SDG26-FLAG-TAP (Arabidopsis thaliana) (UniProt Q84WW6)
T2 sequence: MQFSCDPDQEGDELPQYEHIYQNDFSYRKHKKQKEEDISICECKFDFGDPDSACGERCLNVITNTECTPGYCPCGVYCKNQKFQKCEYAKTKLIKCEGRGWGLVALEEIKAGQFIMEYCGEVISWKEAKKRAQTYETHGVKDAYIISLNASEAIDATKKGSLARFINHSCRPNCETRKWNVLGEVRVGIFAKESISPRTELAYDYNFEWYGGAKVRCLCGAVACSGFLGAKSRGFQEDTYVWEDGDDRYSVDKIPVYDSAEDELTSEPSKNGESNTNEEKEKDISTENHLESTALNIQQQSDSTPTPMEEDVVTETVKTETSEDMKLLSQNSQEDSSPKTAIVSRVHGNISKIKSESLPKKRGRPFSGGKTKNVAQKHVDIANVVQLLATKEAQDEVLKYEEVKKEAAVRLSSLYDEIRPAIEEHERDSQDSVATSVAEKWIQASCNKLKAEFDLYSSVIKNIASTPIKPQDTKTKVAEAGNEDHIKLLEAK


How the values were obtained:
[1] = molecular target: T1, FLD tagged at the carboxyl terminus with FLAG-TAP epitopes (FLD-FLAG-TAP) (Arabidopsis thaliana); assay: co-IP; stable transgenic plants, F1 of FLD-FLAG-TAP line crossed with SDG26-GFP line (or with sdg26 mutant as control); immunoblot
[2] = molecular target: T2, SDG26-FLAG-TAP (Arabidopsis thaliana); assay: co-IP; cross-linked nuclear immunoprecipitation of SDG26 from an SDG26-FLAG-TAP transgenic line, probed with an FY antibody

Row | binding [1] | binding [2] | Molecule
1 | binds | – | SDG26-GFP (from UniProt Q84WW6 1-492)
2 | – | binds | FY (WDR33) (protein, UniProt Q6NLV4 1-647) MYAGGDMHRGSQMPQPPMMRQSSASSTNINPDYHHPSGPFDPNVDSFGAKRMRKHTQRRAVDYTSTVVRYIQARTWQRDSRDRTTLQPTPAAAVDMLPTVAYSDNPSTSFAAKFVHASLNKNRCSINRVLWTPSGRRLITGSQSGEFTLWNGQSFNFEMILQAHDQPIRSMVWSHNENYMVSGDDGGTLKYWQNNMNNVKANKTAHKESIRDLSFCKTDLKFCSCSDDTTVKVWDFTKCVDESSLTGHGWDVKSVDWHPTKSLLVSGGKDQLVKLWDTRSGRELCSLHGHKNIVLSVKWNQNGNWLLTASKDQIIKLYDIRTMKELQSFRGHTKDVTSLAWHPCHEEYFVSGSSDGSICHWIVGHENPQIEIPNAHDNSVWDLAWHPIGYLLCSGSNDHTTKFWCRNRPADNPRDVLMQNQGYNEQGFGRQPDNFQPSEASPIPGAFVPGLTRNEGTIPGIGIAMPFDASSQGDHKQPLPGSMALGAPPLPPGPHPSLLGSGQQQGYQQQQQHQGHPQQMLPMPNMPHHQLPPSSHMPLHPHHLPRPMQMPPHGHMPPPSMPMSHQMPGSMGMQGGMNPQMSQSHFMGAPSGVFQGQPNSGGPQMYPQGRGGFNRPQMIPGYNNPFQQQQQPPLPPGPPPNNNQQHQ

Source: paper PMC7334503
